Results on one substance are retold here after article PMC5359637.

Protein sequences, listed by entry. Tags and fused reporters are not part of them.
UniProt Q6Y1S1: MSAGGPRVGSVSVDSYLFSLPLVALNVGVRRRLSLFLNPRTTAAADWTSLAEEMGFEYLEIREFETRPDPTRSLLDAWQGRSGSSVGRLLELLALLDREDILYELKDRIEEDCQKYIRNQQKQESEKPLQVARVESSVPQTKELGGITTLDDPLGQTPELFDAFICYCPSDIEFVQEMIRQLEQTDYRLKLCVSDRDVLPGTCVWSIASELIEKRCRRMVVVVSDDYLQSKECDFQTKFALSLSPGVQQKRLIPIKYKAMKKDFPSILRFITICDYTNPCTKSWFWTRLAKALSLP

No constants are given. Whether binding was seen depends on the method and setting. Binding seen in cells or lysates may run through a third protein. Some entries that bind do so weakly or less than the wild type.

The target in this assay is T1, TLR4 of NRK-52E cells (rat (endogenous in NRK-52E)) (UniProt Q9QX05).
T1 sequence: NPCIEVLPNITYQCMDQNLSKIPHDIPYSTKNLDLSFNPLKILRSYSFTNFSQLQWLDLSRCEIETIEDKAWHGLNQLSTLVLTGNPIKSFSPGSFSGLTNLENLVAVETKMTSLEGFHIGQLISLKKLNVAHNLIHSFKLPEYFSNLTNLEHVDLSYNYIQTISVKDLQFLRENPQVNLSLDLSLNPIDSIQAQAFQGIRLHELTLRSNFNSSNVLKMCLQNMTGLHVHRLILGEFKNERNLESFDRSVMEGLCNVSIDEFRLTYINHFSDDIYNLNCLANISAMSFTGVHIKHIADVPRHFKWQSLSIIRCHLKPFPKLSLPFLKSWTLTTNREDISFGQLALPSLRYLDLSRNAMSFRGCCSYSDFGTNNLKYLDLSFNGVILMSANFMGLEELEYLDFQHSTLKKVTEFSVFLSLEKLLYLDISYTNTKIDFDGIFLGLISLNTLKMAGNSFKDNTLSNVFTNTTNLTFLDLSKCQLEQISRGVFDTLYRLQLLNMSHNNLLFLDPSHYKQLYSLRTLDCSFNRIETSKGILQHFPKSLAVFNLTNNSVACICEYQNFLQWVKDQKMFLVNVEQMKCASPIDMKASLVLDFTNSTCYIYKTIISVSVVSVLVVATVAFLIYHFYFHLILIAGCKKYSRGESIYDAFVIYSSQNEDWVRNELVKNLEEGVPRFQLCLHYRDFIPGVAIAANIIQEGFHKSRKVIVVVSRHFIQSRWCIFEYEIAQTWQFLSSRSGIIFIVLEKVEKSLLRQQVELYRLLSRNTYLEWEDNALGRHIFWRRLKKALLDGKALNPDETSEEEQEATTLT
The assay can be described thus: co-IP; NRK-52E cells stimulated with Ang II for 30 min, with or without L6H21 pretreatment (2.5, 5, 10 uM, 1 h) or MD2 siRNA; cell extracts with anti-MD2 or anti-TLR4 antibody for 1 h, protein G-Sepharose at 4 C overnight; blot for TLR4 or MyD88.

For “MyD88 of NRK-52E cells (from UniProt Q6Y1S1 1-296)”, the binding entry was “binds”.
